Among the data in PubChem BioAssay AID200 (DTP/NCI, 2004) are T/C and survivor count values, retold here.

The list is a part of this screen's results and no random one: it gathers tests that were run many times, whatever their T/C, doses with no T/C, and many T/C values between a quarter and a half above the control. Further doses and runs are listed elsewhere. T/C: endpoint of the treated group in % of that of the vehicle group. Some entries give survivors of the animals treated and no T/C: the source holds a T/C of zero for them, seemingly a mark for toxic or unscored doses. Some survivor counts are full or nearly so, which does not show that the dose was tolerated: survival well below the control is almost never listed, so the zero probably covers shortened survival too. Counts of survivors are from the toxicity check (mostly the fifth day) where no day follows; animals may have died later. Schedules are NCI's codes, read here as Q, the interval in days (D) or hours (H), X, the number of doses. Some entries were tested several times; the results are listed from low to high. For survival time, the PubChem record calls one and a half times the control and up active, and a quarter to a half above the control has no call in these data; cut-offs in other NCI protocols can differ. Some T/C values are followed by the survivors on the day toxicity was checked, most often the fifth; where none is given, no animal had died by that day. *1 amine or outer side, *2 acyl side, *3 side chain or, on linkers, in order; H or OH if unused. Where a SMILES comes first, the peptide text is derived from it. Bridges are numbered along the chain shown (N, C = ends). Roman numbers before positions name the chains, in order. [ ]: non-standard residue; d: D form. Actinocin(1to9) = Cc1c2oc3c(C)ccc(C(=O)[*:2])c3nc-2c(C(=O)[*:1])c(N)c1=O; X1 = COC(=O)CCN(CC(=O)[*:2])[*:1]; NMeA = CN[CH](C)C(=O)O

The test system of this assay is B6C3F1 mice, B16 melanoma ip, median survival T/C. The experiment in a line: NCI In Vivo Anticancer Drug Screen. Data for tumor model B16 Melanoma (intraperitoneal) in B6C3F1 mice. Particulars: T/C endpoint: median survival time, higher T/C = longer survival. The method in brief: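 Values are T/C ratios: the measurement in treated animals divided by that in vehicle-treated controls, using survival or tumor size in mice carrying transplantable tumors.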

[1] abbreviates: dose: 50.0 mg/kg/injection, schedule: Q01DX009 (ip), vehicle: saline with Tween-80.
Where [2] appears, read: dose: 100.0 mg/kg/injection, schedule: Q01DX009 (ip), vehicle: saline with Tween-80.
The mark [3] stands for this setting: dose: 200.0 mg/kg/injection, schedule: Q01DX009 (ip), vehicle: saline with Tween-80.
Setting [4] is: dose: 400.0 mg/kg/injection, schedule: Q01DX009 (ip), vehicle: saline with Tween-80.
Setting [5] is: dose: 400.0 mg/kg/injection, schedule: Q01DX009 (ip), vehicle: Klucel (hydroxypropylcellulose) (HPC).
[6] abbreviates: dose: 3.0 mg/kg/injection, schedule: Q01DX009 (ip), vehicle: water.
Setting [7] is: dose: 6.0 mg/kg/injection, schedule: Q01DX009 (ip), vehicle: water.
The mark [8] stands for this setting: dose: 12.0 mg/kg/injection, schedule: Q01DX009 (ip), vehicle: water.
Where [9] appears, read: dose: 200.0 mg/kg/injection, schedule: Q01DX009 (ip), vehicle: saline.
The mark [10] stands for this setting: dose: 25.0 mg/kg/injection, schedule: Q01DX001 (ip), vehicle: water.
[11] abbreviates: dose: 25.0 mg/kg/injection, schedule: Q01DX009 (ip), vehicle: saline with Tween-80.
The mark [12] stands for this setting: dose: 0.5 mg/kg/injection, schedule: Q01DX009 (ip), vehicle: saline with Tween-80.

`O=C(N/N=C/c1c(O)ccc2ccccc12)C(=O)N/N=C/c1c(O)ccc2ccccc12`: the T/C by setting is: under setting [1], 125 [9 of 10 alive], 128, 138 % of control; under setting [2], 131 % of control. Moreover, the survivor count runs as follows: under setting [2], 10 of 10; under setting [3], 1 of 10 and 8 of 10.
`ClCc1ccc2ccccc2n1`: the survivor count reads like this: under setting [2], 10 of 10; under setting [3], 10 of 10; under setting [4], 0 of 10.
In the case of `NC(=O)c1ncn(C2OC(CO)C(O)C2O)c1O` (centres undefined), the survivor count under setting [5] is 10 of 10.
As to `C/C=C/C=C\C=C/C(O)CC(OP(=O)(O)O)C(C)(O)/C=C/C1CC=CC(=O)O1` (centres undefined), the T/C reads like this: (dose: 1.5 mg/kg/injection, schedule: Q01DX009 (ip), vehicle: water) 125, 130, 138 % of control; under setting [6], 125, 135, 146 % of control. Moreover, the survivor count is 10 of 10 under setting [7]; 6 of 10 and 9 of 10 under setting [8].
`Clc1cc(Cl)c(C[N+]23CN4CN(CN(C4)C2)C3)cc1Cl`: the survivor count was 5 of 10 under setting [3]; 0 of 10 under setting [4]; 0 of 10 (dose: 400.0 mg/kg/injection, schedule: Q01DX009 (ip), vehicle: saline). For the same compound, the T/C under setting [9] is 125 % of control.
On to `CCC1(O)C(=O)OCc2c1cc1n(c2=O)Cc2cc3ccccc3nc2-1` (centres undefined), for which the T/C runs as follows: (dose: 0.19 mg/kg/injection, schedule: Q01DX009 (ip), vehicle: other) 133 % of control; (dose: 0.38 mg/kg/injection, schedule: Q01DX009 (ip), vehicle: other) 139 % of control. For the same compound, the survivor count (dose: 3.0 mg/kg/injection, schedule: Q01DX009 (ip), vehicle: other) is reported as 10 of 10 and the survivor count (dose: 6.0 mg/kg/injection, schedule: Q01DX009 (ip), vehicle: other) was 10 of 10.
Regarding `CC(=O)Nc1ccc(Nc2ccc(C(=C3C=CC(=[N+](C)CCC#N)C=C3)c3ccc(N(C)CCC#N)cc3)cc2)cc1`, the survivor count by setting is: under setting [1], 0 of 10; under setting [2], 0 of 10; under setting [3], 0 of 10; under setting [4], 0 of 10.
For the compound `COc1cccc2c1C(=O)c1c(O)c3c(c(O)c1C2=O)C[C@](O)(C(=O)CO)CC3OC1CC(N)C(OC2CCCCO2)C(C)O1` (some centres undefined), the T/C was 129 % of control (dose: 1.56 mg/kg/injection, schedule: Q01DX001 (ip), vehicle: water) and 148 % of control under setting [10]. Further, the survivor count is given as 10 of 10 under setting [6]; 9 of 10 under setting [7]; 9 of 10 (dose: 6.25 mg/kg/injection, schedule: Q01DX009 (ip), vehicle: water); 4 of 10 under setting [8]; 6 of 10 (dose: 12.5 mg/kg/injection, schedule: Q01DX009 (ip), vehicle: water); 0 of 9 (dose: 24.0 mg/kg/injection, schedule: Q01DX009 (ip), vehicle: water). The survivor count is given as 10 of 10 under setting [10]; 2 of 10 (dose: 25.0 mg/kg/injection, schedule: Q01DX009 (ip), vehicle: water); 0 of 10 (dose: 50.0 mg/kg/injection, schedule: Q01DX001 (ip), vehicle: water); 0 of 10 (dose: 50.0 mg/kg/injection, schedule: Q01DX009 (ip), vehicle: water); 0 of 10 (dose: 100.0 mg/kg/injection, schedule: Q01DX009 (ip), vehicle: water).
Take `COC(=O)CCN1CC(=O)N(C)C(C)C(=O)OC(C)C(NC(=O)c2c3nc4c(C(=O)NC5C(=O)NC(C(C)C)C(=O)N6CCCC6C(=O)N(CCC(=O)OC)CC(=O)N(C)C(C)C(=O)OC5C)ccc(C)c4oc-3c(C)c(=O)c2N)C(=O)NC(C(C)C)C(=O)N2CCCC2C1=O` (centres undefined) (I: TVP[X1][NMeA] / II: TVP[X1][NMeA]; ester I:1-I:C, II:1-II:C; linker I:N-II:N via Actinocin(1to9); configuration not given here): the T/C (dose: 16.0 mg/kg/injection, schedule: Q04DX003 (ip), vehicle: saline + alcohol) was 129 % of control and the T/C (dose: 32.0 mg/kg/injection, schedule: Q04DX003 (ip), vehicle: saline + alcohol) is 129 % of control.
On to `CCCCCCCCCCCCCCCC[N+]1(C)CCN(SN2CC[N+](C)(CCCCCCCCCCCCCCCC)CC2)CC1`, for which the survivor count under setting [11] was 10 of 10; the survivor count (dose: 50.0 mg/kg/injection, schedule: Q01DX009 (ip), vehicle: saline) was 5 of 10; the survivor count under setting [2] is reported as 10 of 10.
Consider `C[n+]1c(-c2cccc(OCCOCCOc3cccc(-c4c5cc(N)ccc5c5ccc(N)cc5[n+]4C)c3)c2)c2cc(N)ccc2c2ccc(N)cc21`, for which, for the setting “dose: 2.0 mg/kg/injection, schedule: Q01DX009 (ip), vehicle: distilled water + Tween-80”, the T/C was 138 % of control. Moreover, where the note is “dose: 4.0 mg/kg/injection, schedule: Q01DX009 (ip), vehicle: distilled water + Tween-80”, the survivor count is reported as 10 of 10.
`CS(=O)(=O)Nc1ccc(C(=O)CCN2CCCCCC2)cc1`: the survivor count (dose: 400.0 mg/kg/injection, schedule: Q01DX009 (ip), vehicle: suspension in saline) was 3 of 10.
As to `CCC(C)C1NC(=O)C(CC(C)C)NC(=O)C(C(C)C)NC(=O)C2CSSCC(NC1=O)C(=O)N2` (centres undefined) (cyclo(CCVLI); disulfide 1-2; configuration not given here), the survivor count (dose: 250.0 micrograms/kg/injection, schedule: Q01DX009 (ip), vehicle: Klucel (hydroxypropylcellulose) (HPC)) is 9 of 10.
Regarding `CN(C)c1ccc2c(Nc3ccc(NS(C)(=O)=O)cc3)c3ccc(N(C)C)cc3nc2c1`, the survivor count by setting is: (dose: 25.0 mg/kg/injection, schedule: Q01DX009 (ip), vehicle: Klucel (hydroxypropylcellulose) (HPC)) 10 of 10; (dose: 200.0 mg/kg/injection, schedule: Q01DX009 (ip), vehicle: Klucel (hydroxypropylcellulose) (HPC)) 10 of 10; under setting [5], 10 of 10.
`CC(=S)NC(O)C(=O)c1ccccc1` (centres undefined): the survivor count reads like this: (dose: 200.0 mg/kg/injection, schedule: Q01DX009 (ip), vehicle: distilled water + Tween-80) 3 of 10; (dose: 400.0 mg/kg/injection, schedule: Q01DX009 (ip), vehicle: distilled water + Tween-80) 0 of 10; under setting [4], 5 of 10.
Turning to `CO[C@H]1C[C@@H]2CC[C@@H](C)[C@@](O)(O2)C(=O)C(=O)N2CCCC[C@H]2C(=O)O[C@H]([C@H](C)C[C@@H]2CC[C@@H](O)[C@H](OC)C2)CC(=O)[C@H](C)C=C(C)[C@@H](O)[C@@H](OC)C(=O)[C@H](C)C[C@H](C)/C=C/C=C/C=C1C`, the T/C reads like this: (dose: 190.0 mg/kg/injection, schedule: Q01DX001 (ip), vehicle: saline with Tween-80) 141 % of control; (dose: 380.0 mg/kg/injection, schedule: Q01DX001 (ip), vehicle: saline with Tween-80) 125 % of control; (dose: 760.0 mg/kg/injection, schedule: Q01DX001 (ip), vehicle: saline with Tween-80) 125 % of control.
As to `CCCCCCCCSC1=C(Cl)C(=O)C(OC)=C(OC)C1=O`, the survivor count reads like this: (dose: 12.5 mg/kg/injection, schedule: Q01DX009 (ip), vehicle: saline with Tween-80) 10 of 10; under setting [11], 9 of 10; under setting [1], 5 of 10.
For the compound `CO[C@H]1Nc2c(ccc(C)c2O)C(=O)N2C=C(/C=C/C(N)=O)C[C@@H]12`, the survivor count is 10 of 10 (dose: 0.25 mg/kg/injection, schedule: Q01DX009 (ip), vehicle: saline with Tween-80); 9 of 10 under setting [12]; 8 of 10 (dose: 0.8 mg/kg/injection, schedule: Q04DX003 (ip), vehicle: DMSO); 0 of 10 and 1 of 10 (dose: 1.0 mg/kg/injection, schedule: Q01DX009 (ip), vehicle: saline with Tween-80). The T/C under setting [12] is 147 % of control.
On to `C1CNCOC1`, for which the survivor count under setting [9] was 7 of 10.
